System: effet analgésique de la morphine
Test: Hot plate test: antagonism of the analgesic effect of morphine
Format: in vivo, souris
Details: conclusion in words drawn from Tableau I (central antagonism of morphine analgesia)
Method: L'antagonisme à l'effet analgésique de la morphine a été évalué selon le test classique pour l'analgésie de la plaque chauffante (Eddy et Leibach, J. Pharmacol. 1953, 107, 385, modifié par Janseen et Jagenau, J. Pharm. Pharmacol. 1957, 9, 381-400). Ce test est très sensible pour l'action des antogonistes des opiacés.
On utilise des souris femelles de 18 à 22 g. Les substances sont administrées en solution physiologique (20 ml/kg) par voie sous-cutanée 5 minutes avant l'administration de la morphine (24 mg/kg s.c.). Trente minutes après la morphine, on place les animaux sur la plaque chauffante et l'on évalue le temps de réaction des animaux qui présentent la réaction nocicéptive (léchage des pattes).
L'activité des substances à activité antagoniste périphérique des narcotiques est évaluée sur la base de l'inhibition pour cent de l'effet constipant et de l'effet analgésique de la morphine. La dose qui inhibe de 50 % lesdits effets (DI50c pour l'effet constipant et […] pour l'effet analgésique) a été extrapolée de la droite de régression log dose-réponse en appliquant l'analyse de la variance par régression linéaire.

Compound	passage de la barrière hématoméningée
C=CC[N+]1(C)CC[C@]23CCCC[C@H]2[C@H]1Cc1ccc(O)cc13 (single isomer, unassigned) [iodométhylate de lévallorphan]	ne passe pas la barrière hèmatoméningée
C=CC[N+]1(CC=C)CC[C@]23CCCC[C@H]2[C@H]1Cc1ccc(O)cc13 [bromoallylate de lévallorphan]	montre une tendance au passage de la barrière hématomèningèe
